Test results reported in patent US20070071773A1 (priority 2002, published 2007).
End groups of sequences in plain letters are not given here.

Experiment: peptide synthesis
Conditions: whole synthesis

DIFKLVIDHISMKARKK (SilCR peptide)
final purity (method not given) (run 1): 70%
final purity (method not given) (run 2): 90%
